Results are given in words; binding and its absence hold for the method and conditions named. Some results given as binding are weak or reduced against the parent protein; the word gives no strength.
biological target: IgG-Fc [IgG part: P01857]; experiment: phage clone selected on IgG-Fc

| binding | Binder |
| --- | --- |
| binds | GEADCAWHLGELVWCTKVEE |
| binds | EQADCAWHLGELVWCTPMVF |
| binds | WRGGCSWHMGELVWCEHDME |
| binds | VAEPCAYHLGELVWCEVLKG |
| binds | GVADCAWHLGELVWCTERED |
| binds | WVEDCAWHMGELVWCTKVDE |
| binds | GEEDCAWHLGELVWCSGGDF |
| binds | WVDCAYHLGELVWCSTFEE |
| binds | EEASCAYHLGELVWCDAFDV |
| binds | WEADCAWHLGELVWCTKVEE |
| binds | KEADCAWHMGELVWCSEMEG |
| binds | KEAMCSYWLGELVWCESDMP |
| binds | GEEDCSYHLGELVMCTELDD |
| binds | READCAWHLGELVWCSERDL |
| binds | GRMECAWHQGELVWCTPTLE |
| binds | NQVSCSYSRGELVWCSKQSQ |
| binds | RVASCAWHLGELVWCDGLDG |
| binds | AVSKCSFHMGELVWCSDVMN |
| binds | GEADCSYHLGELVWCNDFEE |
| binds | EMRDCSWHLGELVWCAHMEG |
| binds | EEPDCSWHLGELVMCTPMEV |
| binds | GEASCAYHLGELVWCDEGEG |
| binds | GSWECAYHLGELVWCETGSG |
| binds | KEASCSYWLGELVWCSDLWE |
| binds | KVADCAWHMGELVWCTEVEG |
| binds | GTMECSWHQGELVWCTPTLA |
| binds | RVEDCAYHLGELVWCTEGDE |

Source: EP1757701A1
